Results deposited as PubChem BioAssay AID1259405 (NCATS, 2018)
Screen: 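Mouse-designed siRNAs used to find CHO productivity engineering targets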 (primary screen). Cell system: Chinese hamster CHO-K1 ovary cells with stable secreted eGFP expression. Reagent: single siRNA against mouse genes, 0.8 pmol siRNA per well (2 µl of 400 nM stock). Duration: 3 days. Measured: 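Per-well intracellular GFP measured by laser scanning cytometry, plus viability from ATP luminescence, each relative to plate median of non-targeting control wells, in %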. Scale: GFP, % of control: higher = more GFP per well, higher productivity; viability (ATP), % of control: higher = more viable cells (more ATP). Rule for the call: 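a knock-down is called active if GFP reaches 120% or more of non-targeting control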.
This is a random part of about 50,000 reagents tested. About 4,000 of them (8%) count as active. 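Mouse siRNA library applied to hamster cells; one well for each siRNA.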 Reagents against one gene are numbered here.

| gene symbol | reagent | GFP, % of control | viability (ATP), % of control | activity call |
| --- | --- | --- | --- | --- |
| Cep295 | 1 | 72.8 | 66.5 | inactive |
| Cep295 | 2 | 63.5 | 97.4 | inactive |
| Cep295 | 3 | 128 | 115 | active |
| Rbbp8 | 1 | 75.9 | 79.8 | inactive |
| Rbbp8 | 2 | 150 | 99.8 | active |
| Tmem121 | 1 | 74.6 | 65.8 | inactive |
| Tmem121 | 2 | 57.2 | 65.5 | inactive |
| Tmem121 | 3 | 85 | 97.7 | inactive |
| Nfyb | 1 | 88.4 | 50.9 | inactive |
| Nfyb | 2 | 88.3 | 97.2 | inactive |
| Nfyb | 3 | 68.9 | 92.1 | inactive |
| Mef2a | 1 | 116 | 68.3 | inactive |
| Mef2a | 2 | 74.3 | 70.9 | inactive |
| Mef2a | 3 | 67.3 | 70.7 | inactive |
| Atp6v1e1 | 1 | 133 | 109 | active |
| Atp6v1e1 | 2 | 70.7 | 79.2 | inactive |
| Atp6v1e1 | 3 | 64.2 | 47.9 | inactive |
| H2bc4 | 1 | 82.2 | 76.7 | inactive |
| H2bc4 | 2 | 63.8 | 68.5 | inactive |
| H2bc4 | 3 | 67.3 | 61.9 | inactive |
| Il10 | 1 | 67.1 | 55.2 | inactive |
| Il10 | 2 | 25.6 | 24.8 | inactive |
| Il10 | 3 | 76.1 | 82.1 | inactive |
| Rbm10 | 1 | 78.5 | 83.9 | inactive |
| Rbm10 | 2 | 65.5 | 68.8 | inactive |
| St7l | 1 | 93.2 | 68.8 | inactive |
| St7l | 2 | 70.2 | 100 | inactive |
| St7l | 3 | 95.4 | 79.6 | inactive |
| Arhgef15 | 1 | 76.8 | 33 | inactive |
| Arhgef15 | 2 | 75.4 | 83.3 | inactive |
| Arhgef15 | 3 | 44.5 | 65.3 | inactive |
| Luc7l | 1 | 59.9 | 92 | inactive |
| Luc7l | 2 | 104 | 72.7 | inactive |
| Luc7l | 3 | 140 | 44.9 | active |
| Gckr | 1 | 113 | 93 | inactive |
| Gckr | 2 | 324 | 83.3 | active |
| Gckr | 3 | 122 | 97.7 | active |
| Gckr | 4 | 85.7 | 77.6 | inactive |
| Gckr | 5 | 324 | 83.3 | active |
| Snrpa | 1 | 106 | 63.3 | inactive |
| Snrpa | 2 | 35.2 | 67.5 | inactive |
| Alg6 | 1 | 68.5 | 78.8 | inactive |
| Alg6 | 2 | 121 | 69.1 | active |
| Alg6 | 3 | 102 | 118 | inactive |
| Degs2 | 1 | 70.6 | 74.4 | inactive |
| Degs2 | 2 | 98.6 | 62.1 | inactive |
| Degs2 | 3 | 105 | 105 | inactive |
| Nxpe5 | 1 | 42.4 | 52.9 | inactive |
| Nxpe5 | 2 | 90 | 73.5 | inactive |
| Nxpe5 | 3 | 161 | 86.3 | active |
| Pdgfb | 1 | 81 | 80 | inactive |
| Pdgfb | 2 | 51.7 | 59.6 | inactive |
| Pdgfb | 3 | 102 | 78.1 | inactive |
| Rab1b | 1 | 80.4 | 77.5 | inactive |
| Rab1b | 2 | 85.1 | 63.9 | inactive |
| Rab1b | 3 | 52.9 | 81.2 | inactive |
| AI504432 | 1 | 70.4 | 61.4 | inactive |
| AI504432 | 2 | 78.6 | 85.2 | inactive |
| AI504432 | 3 | 29.5 | 14.6 | inactive |
| Wdr46 | 1 | 90.9 | 64.8 | inactive |
| Wdr46 | 2 | 82.9 | 75 | inactive |
| 4833420G17Rik | 1 | 102 | 60.3 | inactive |
| 4833420G17Rik | 2 | 101 | 90 | inactive |
| 4833420G17Rik | 3 | 87.8 | 78.3 | inactive |
| Cyp4a10 | 1 | 95.9 | 96.9 | inactive |
| Cyp4a10 | 2 | 56.2 | 79.3 | inactive |
| Cyp4a10 | 3 | 72.8 | 73 | inactive |
| C87436 | 1 | 96.1 | 102 | inactive |
| C87436 | 2 | 75.2 | 74.2 | inactive |
| C87436 | 3 | 119 | 107 | inactive |
| Becn1 | 1 | 112 | 89.3 | inactive |
| Becn1 | 2 | 0 | 60.8 | inactive |
| Becn1 | 3 | 87.1 | 97.2 | inactive |
| Irf1 | 1 | 113 | 87.3 | inactive |
| Irf1 | 2 | 83 | 77.3 | inactive |
| Irf1 | 3 | 79.4 | 115 | inactive |
| Fap | 1 | 91.9 | 88.2 | inactive |
| Fap | 2 | 77.7 | 59.5 | inactive |
| Fap | 3 | 71.6 | 77.8 | inactive |
| Trmt1l | 1 | 82.5 | 80.1 | inactive |
| Trmt1l | 2 | 40.3 | 64.1 | inactive |
| Trmt1l | 3 | 26.2 | 28.5 | inactive |
| Or10j2 | 1 | 218 | 106 | active |
| Or10j2 | 2 | 70.3 | 61 | inactive |
| Or10j2 | 3 | 37.8 | 42.8 | inactive |
| Ivns1abp | 1 | 49.7 | 58.9 | inactive |
| Ivns1abp | 2 | 65.3 | 47.6 | inactive |
| Ivns1abp | 3 | 62 | 57.7 | inactive |
| Prss27 | 1 | 85.4 | 102 | inactive |
| Prss27 | 2 | 69.5 | 36.5 | inactive |
| Prss27 | 3 | 52.7 | 58 | inactive |
| Deup1 | 1 | 95.3 | 114 | inactive |
| Deup1 | 2 | 115 | 88.3 | inactive |
| Deup1 | 3 | 119 | 124 | inactive |
| Prss37 | 1 | 155 | 136 | active |
| Prss37 | 2 | 65.1 | 76.8 | inactive |
| Prss37 | 3 | 58 | 95.2 | inactive |
| Meaf6 | 1 | 57.4 | 62.3 | inactive |
| Meaf6 | 2 | 107 | 107 | inactive |
| Meaf6 | 3 | 78.2 | 64.6 | inactive |
| Nfia | 1 | 92.5 | 93.1 | inactive |
| Nfia | 2 | 50.4 | 81.6 | inactive |
| Nfia | 3 | 65.9 | 109 | inactive |
| Rhoc | 1 | 57.5 | 71.9 | inactive |
| Rhoc | 2 | 83.6 | 98.5 | inactive |
| Rhoc | 3 | 40.3 | 53.1 | inactive |
| Clspn | 1 | 136 | 119 | active |
| Clspn | 2 | 29 | 63.3 | inactive |
| Clspn | 3 | 95.5 | 89.8 | inactive |

No new results follow: entries from further up.
| gene symbol | reagent | GFP, % of control | viability (ATP), % of control | activity call |
| --- | --- | --- | --- | --- |
| Cyp4a10 | 1 | 95.9 | 96.9 | inactive |
| Cyp4a10 | 2 | 56.2 | 79.3 | inactive |
| Cyp4a10 | 3 | 72.8 | 73 | inactive |
| C87436 | 1 | 96.1 | 102 | inactive |
| C87436 | 2 | 75.2 | 74.2 | inactive |
| C87436 | 3 | 119 | 107 | inactive |
| Becn1 | 1 | 112 | 89.3 | inactive |
| Becn1 | 2 | 0 | 60.8 | inactive |
| Becn1 | 3 | 87.1 | 97.2 | inactive |
| Irf1 | 1 | 113 | 87.3 | inactive |
| Irf1 | 2 | 83 | 77.3 | inactive |
| Irf1 | 3 | 79.4 | 115 | inactive |
| Fap | 1 | 91.9 | 88.2 | inactive |
